# Measurements as given in patent US11660280B2, “Treatment of drug resistant gliomas” (OKLAHOMA MEDICAL RESEARCH FOUNDATION, priority 2017, dated 2023).
# Entries after “also recorded” stand apart in the source; their conditions may differ. For at least one compound, name, drawing or mass did not settle the structure.
# Test system: human G55 xenograft
# Assay: Orthotopic G55 human GBM xenograft in nude mice (survival, MRI tumor volume, perfusion rCBF)
# Assay type: in vivo, mouse
# Conditions: G55 glioma-bearing nude mice; Kaplan-Meier
structure (smiles),measurement,value
"Cn1nnc2c(C(N)=O)ncn2c1=O [TMZ, Temozolomide, reference compound]",percent survival compared to untreated (UT) mice,significant increase in percent survival; also recorded: significant decrease in percent survival
